Data reported in the supplement of paper PMC8728848.
The other results are listed elsewhere or left out.

Experiments:
Test in all cases: glycan array binding signal (z-score within array); higher = stronger binding
Settings in all cases: glycan notation: IUPAC condensed, linker removed
[1] = target: Neu5Ac(a2-3)Gal(b1-4)GlcNAc(b1-6)GalNAc
Method in brief: (§1)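 The binding signal is a Z-score computed within each array and averaged over linkers. Arrays of the same protein sequence at different concentrations or buffers were also averaged together. Data originate from 3228 arrays in the Consortium for Functional Glycomics database, kept only where the protein sequence was available.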

[2] = target: Neu5Ac(a2-3)Gal(b1-4)GlcNAc(b1-6)[Gal(b1-3)]GalNAc
Method in brief: as §1

[3] = target: Neu5Ac(a2-3)Gal(b1-4)GlcNAc(b1-6)[Neu5Ac(a2-3)Gal(b1-3)]GalNAc
Method in brief: as §1

[4] = target: Neu5Ac(a2-3)Gal(b1-4)GlcNAc6S
Method in brief: as §1

[5] = target: Neu5Ac(a2-3)Gal(b1-4)[Fuc(a1-3)]GlcNAc
Method in brief: as §1

[6] = target: Neu5Ac(a2-3)Gal(b1-4)[Fuc(a1-3)]GlcNAc(b1-2)Man
Method in brief: as §1

[7] = target: Neu5Ac(a2-3)Gal(b1-4)[Fuc(a1-3)]GlcNAc(b1-3)Gal
Method in brief: as §1

[8] = target: Neu5Ac(a2-3)Gal(b1-4)[Fuc(a1-3)]GlcNAc(b1-3)Gal(b1-4)GlcNAc
Method in brief: as §1

[9] = target: Neu5Ac(a2-3)Gal(b1-4)[Fuc(a1-3)]GlcNAc(b1-3)Gal(b1-4)[Fuc(a1-3)]GlcNAc(b1-3)Gal(b1-4)[Fuc(a1-3)]GlcNAc
Method in brief: as §1

[10] = target: Neu5Ac(a2-3)Gal(b1-4)[Fuc(a1-3)]GlcNAc(b1-3)GalNAc
Method in brief: as §1

[11] = target: Neu5Ac(a2-3)Gal(b1-4)[Fuc(a1-3)]GlcNAc(b1-6)[Gal(b1-3)]GalNAc
Method in brief: as §1

[12] = target: Neu5Ac(a2-3)Gal(b1-4)[Fuc(a1-3)]GlcNAc(b1-6)[Neu5Ac(a2-3)Gal(b1-3)]GalNAc
Method in brief: as §1

[13] = target: Neu5Ac(a2-3)Gal(b1-4)[Fuc(a1-3)]GlcNAc6S
Method in brief: as §1

[14] = target: Neu5Ac(a2-3)Gal6S(b1-4)GlcNAc
Method in brief: as §1

[15] = target: Neu5Ac(a2-3)Gal6S(b1-4)[Fuc(a1-3)]GlcNAc
Method in brief: as §1

[16] = target: Neu5Ac(a2-3)GalNAc
Method in brief: as §1

[17] = target: Neu5Ac(a2-3)GalNAc(b1-4)GlcNAc
Method in brief: as §1

[18] = target: Neu5Ac(a2-3)[GalNAc(b1-4)]Gal(b1-4)Glc
Method in brief: as §1

[19] = target: Neu5Ac(a2-3)[GalNAc(b1-4)]Gal(b1-4)GlcNAc
Method in brief: as §1

[20] = target: Neu5Ac(a2-3)[GalNAc(b1-4)]Gal(b1-4)GlcNAc(b1-3)GalNAc
Method in brief: as §1

[21] = target: Neu5Ac(a2-3)[Neu5Ac(a2-6)]GalNAc
Method in brief: as §1

[22] = target: Neu5Ac(a2-6)Gal
Method in brief: as §1

[23] = target: Neu5Ac(a2-6)Gal(b1-3)GlcNAc(b1-3)[Gal(b1-4)GlcNAc(b1-6)]Gal(b1-4)Glc
Method in brief: as §1

[24] = target: Neu5Ac(a2-6)Gal(b1-4)Glc
Method in brief: as §1

[25] = target: Neu5Ac(a2-6)Gal(b1-4)GlcNAc
Method in brief: as §1

[26] = target: Neu5Ac(a2-6)Gal(b1-4)GlcNAc(b1-2)Man
Method in brief: as §1

[27] = target: Neu5Ac(a2-6)Gal(b1-4)GlcNAc(b1-2)Man(a1-3)Man(b1-4)GlcNAc(b1-4)GlcNAc
Method in brief: as §1

[28] = target: Neu5Ac(a2-6)Gal(b1-4)GlcNAc(b1-2)Man(a1-3)[Gal(b1-4)GlcNAc(b1-2)Man(a1-6)]Man(b1-4)GlcNAc(b1-4)GlcNAc
Method in brief: as §1

[29] = target: Neu5Ac(a2-6)Gal(b1-4)GlcNAc(b1-2)Man(a1-3)[GlcNAc(b1-2)Man(a1-6)]Man(b1-4)GlcNAc(b1-4)GlcNAc
Method in brief: as §1

[30] = target: Neu5Ac(a2-6)Gal(b1-4)GlcNAc(b1-2)Man(a1-3)[GlcNAc(b1-4)][Neu5Ac(a2-6)Gal(b1-4)GlcNAc(b1-2)Man(a1-6)]Man(b1-4)GlcNAc(b1-4)GlcNAc
Method in brief: as §1

[31] = target: Neu5Ac(a2-6)Gal(b1-4)GlcNAc(b1-2)Man(a1-3)[Man(a1-6)]Man(b1-4)GlcNAc(b1-4)GlcNAc
Method in brief: as §1

[32] = target: Neu5Ac(a2-6)Gal(b1-4)GlcNAc(b1-2)Man(a1-3)[Neu5Ac(a2-3)Gal(b1-4)GlcNAc(b1-2)Man(a1-6)]Man(b1-4)GlcNAc(b1-4)GlcNAc
Method in brief: as §1

[33] = target: Neu5Ac(a2-6)Gal(b1-4)GlcNAc(b1-2)Man(a1-3)[Neu5Ac(a2-6)Gal(b1-4)GlcNAc(b1-2)Man(a1-6)]Man(b1-4)GlcNAc(b1-4)GlcNAc
Method in brief: as §1

[34] = target: Neu5Ac(a2-6)Gal(b1-4)GlcNAc(b1-2)Man(a1-3)[Neu5Ac(a2-6)Gal(b1-4)GlcNAc(b1-2)Man(a1-6)]Man(b1-4)GlcNAc(b1-4)[Fuc(a1-6)]GlcNAc
Method in brief: as §1

[35] = target: Neu5Ac(a2-6)Gal(b1-4)GlcNAc(b1-2)Man(a1-6)Man(b1-4)GlcNAc(b1-4)GlcNAc
Method in brief: as §1

[36] = target: Neu5Ac(a2-6)Gal(b1-4)GlcNAc(b1-2)Man(a1-6)[Gal(b1-4)GlcNAc(b1-2)Man(a1-3)]Man(b1-4)GlcNAc(b1-4)GlcNAc
Method in brief: as §1

[37] = target: Neu5Ac(a2-6)Gal(b1-4)GlcNAc(b1-2)Man(a1-6)[GlcNAc(b1-2)Man(a1-3)]Man(b1-4)GlcNAc(b1-4)GlcNAc
Method in brief: as §1

[38] = target: Neu5Ac(a2-6)Gal(b1-4)GlcNAc(b1-2)Man(a1-6)[Man(a1-3)]Man(b1-4)GlcNAc(b1-4)GlcNAc
Method in brief: as §1

[39] = target: Neu5Ac(a2-6)Gal(b1-4)GlcNAc(b1-2)[Neu5Ac(a2-6)Gal(b1-4)GlcNAc(b1-4)]Man(a1-3)[GlcNAc(b1-4)][Neu5Ac(a2-6)Gal(b1-4)GlcNAc(b1-2)[Neu5Ac(a2-6)Gal(b1-4)GlcNAc(b1-6)]Man(a1-6)]Man(b1-4)GlcNAc(b1-4)GlcNAc
Method in brief: as §1

[40] = target: Neu5Ac(a2-6)Gal(b1-4)GlcNAc(b1-2)[Neu5Ac(a2-6)Gal(b1-4)GlcNAc(b1-4)]Man(a1-3)[GlcNAc(b1-4)][Neu5Ac(a2-6)Gal(b1-4)GlcNAc(b1-4)Man(a1-6)]Man(b1-4)GlcNAc(b1-4)GlcNAc
Method in brief: as §1

[41] = target: Neu5Ac(a2-6)Gal(b1-4)GlcNAc(b1-2)[Neu5Ac(a2-6)Gal(b1-4)GlcNAc(b1-6)]Man(a1-6)[Neu5Ac(a2-6)Gal(b1-4)GlcNAc(b1-2)Man(a1-3)][GlcNAc(b1-4)]Man(b1-4)GlcNAc(b1-4)GlcNAc
Method in brief: as §1

[42] = target: Neu5Ac(a2-6)Gal(b1-4)GlcNAc(b1-3)Gal(b1-3)GlcNAc
Method in brief: as §1

[43] = target: Neu5Ac(a2-6)Gal(b1-4)GlcNAc(b1-3)Gal(b1-4)GlcNAc
Method in brief: as §1

[44] = target: Neu5Ac(a2-6)Gal(b1-4)GlcNAc(b1-3)Gal(b1-4)GlcNAc(b1-2)Man(a1-3)[Neu5Ac(a2-6)Gal(b1-4)GlcNAc(b1-3)Gal(b1-4)GlcNAc(b1-2)Man(a1-6)]GalNAc
Method in brief: as §1

[45] = target: Neu5Ac(a2-6)Gal(b1-4)GlcNAc(b1-3)Gal(b1-4)GlcNAc(b1-3)Gal(b1-4)GlcNAc
Method in brief: as §1

[46] = target: Neu5Ac(a2-6)Gal(b1-4)GlcNAc(b1-3)Gal(b1-4)GlcNAc(b1-3)Gal(b1-4)GlcNAc(b1-2)Man(a1-3)[Neu5Ac(a2-6)Gal(b1-4)GlcNAc(b1-3)Gal(b1-4)GlcNAc(b1-3)Gal(b1-4)GlcNAc(b1-2)Man(a1-6)]GalNAc
Method in brief: as §1

B1: AntigenI/IIA3VP1 (Streptococcus mutans), C9E3B4 (protein)
chain: AANEADYQAKLTAYQTELARVQKANADAKAAYEAAVAANNAANAALTAENTAIKKRNADAKADYEAKLAKYQADLAKYQKDLADYPVKLKAYEDEQASIKAALAELEKHKNEDGNLTEPSAQNLVYDLEPNANLSLTTDGKFLKASAVDDAFSKSTSKAKYDQKILQLDDLDITNLEQSNDVASSMELYGNFGDKAGWSTTVSNNSQVKWGSVLLERGQSATATYTNLQNSYYNGKKISKIVYKYTVDPKSKFQGQKVWLGIFTDPTLGVFASAYTGQVEKNTSIFIKNEFTFYDEDGKPINFDNALLSVASLNREHNSIEMAKDYSGKFVKISGSSIGEKNGMIYATDTLNFKQGEGGSRWTMYKNSQAGSGWDSSDAPNSWYGAGAIKMSGPNNYVTVGATSATNVMPVSDMPVVPGKDNTDGKKPNIWYSLNGKIRAVNVPKVTKEKPTPPVKPTAPTKPTYETEKPLKPAPVAPNYEKEPTPPTRLEHHHHHH
- glycan array binding signal (z-score) [1]: -1.01
- glycan array binding signal (z-score) [2]: -0.572
- glycan array binding signal (z-score) [3]: 0.145
- glycan array binding signal (z-score) [4]: -0.627
- glycan array binding signal (z-score) [5]: -0.524
- glycan array binding signal (z-score) [6]: 2.24
- glycan array binding signal (z-score) [7]: -0.529
- glycan array binding signal (z-score) [8]: -0.001
- glycan array binding signal (z-score) [9]: -0.07
- glycan array binding signal (z-score) [10]: 1.57
- glycan array binding signal (z-score) [11]: 2.32
- glycan array binding signal (z-score) [12]: 0.167
- glycan array binding signal (z-score) [13]: -1.04
- glycan array binding signal (z-score) [14]: -0.68
- glycan array binding signal (z-score) [15]: -0.675
- glycan array binding signal (z-score) [16]: -1.05
- glycan array binding signal (z-score) [17]: -0.789
- glycan array binding signal (z-score) [18]: -0.636
- glycan array binding signal (z-score) [19]: -0.45
- glycan array binding signal (z-score) [20]: 0.844
- glycan array binding signal (z-score) [21]: 0.222
- glycan array binding signal (z-score) [22]: -1.55
- glycan array binding signal (z-score) [23]: 0.439
- glycan array binding signal (z-score) [24]: -0.114
- glycan array binding signal (z-score) [25]: -0.452
- glycan array binding signal (z-score) [26]: -0.522
- glycan array binding signal (z-score) [27]: -0.245
- glycan array binding signal (z-score) [28]: 0.157
- glycan array binding signal (z-score) [29]: -0.928
- glycan array binding signal (z-score) [30]: -0.618
- glycan array binding signal (z-score) [31]: 0.484
- glycan array binding signal (z-score) [32]: 0.381
- glycan array binding signal (z-score) [33]: -0.329
- glycan array binding signal (z-score) [34]: 1.67
- glycan array binding signal (z-score) [35]: -0.28
- glycan array binding signal (z-score) [36]: -1.05
- glycan array binding signal (z-score) [37]: -0.891
- glycan array binding signal (z-score) [38]: -1.13
- glycan array binding signal (z-score) [39]: -0.286
- glycan array binding signal (z-score) [40]: 1.05
- glycan array binding signal (z-score) [41]: 0.993
- glycan array binding signal (z-score) [42]: -1.1
- glycan array binding signal (z-score) [43]: -0.214
- glycan array binding signal (z-score) [44]: -0.823
- glycan array binding signal (z-score) [45]: -1.17
- glycan array binding signal (z-score) [46]: 1.74
